# Test results from the supplement of paper PMC10849652.
# Sequences of proteins named here, by UniProt entry; tags and fusion partners are left off. A change or cut given only in a name is not applied to a line headed by its entry.
# UniProt Q9H1Y0: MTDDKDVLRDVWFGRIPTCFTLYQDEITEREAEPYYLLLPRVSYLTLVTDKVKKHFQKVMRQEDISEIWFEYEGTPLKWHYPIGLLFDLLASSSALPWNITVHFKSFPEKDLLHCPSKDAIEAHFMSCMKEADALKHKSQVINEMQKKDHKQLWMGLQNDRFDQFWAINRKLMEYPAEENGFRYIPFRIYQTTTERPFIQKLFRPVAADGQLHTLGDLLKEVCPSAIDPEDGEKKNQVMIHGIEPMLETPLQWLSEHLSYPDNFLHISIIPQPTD
# UniProt P08243: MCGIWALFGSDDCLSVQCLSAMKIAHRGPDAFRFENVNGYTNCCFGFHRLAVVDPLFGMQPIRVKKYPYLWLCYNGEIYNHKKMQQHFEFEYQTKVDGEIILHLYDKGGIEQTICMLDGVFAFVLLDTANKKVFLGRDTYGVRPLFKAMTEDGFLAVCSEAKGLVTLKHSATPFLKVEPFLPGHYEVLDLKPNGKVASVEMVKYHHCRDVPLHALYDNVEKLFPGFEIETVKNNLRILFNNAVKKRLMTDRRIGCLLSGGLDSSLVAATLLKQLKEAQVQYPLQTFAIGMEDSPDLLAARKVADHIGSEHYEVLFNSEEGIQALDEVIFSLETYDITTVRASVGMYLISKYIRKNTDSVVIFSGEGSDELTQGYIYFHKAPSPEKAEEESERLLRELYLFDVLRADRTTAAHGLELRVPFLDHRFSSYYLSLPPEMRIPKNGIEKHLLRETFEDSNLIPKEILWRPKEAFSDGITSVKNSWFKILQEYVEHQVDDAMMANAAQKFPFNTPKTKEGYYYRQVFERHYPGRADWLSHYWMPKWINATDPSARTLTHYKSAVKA
# UniProt Q9NVP2, whole entry, looked up: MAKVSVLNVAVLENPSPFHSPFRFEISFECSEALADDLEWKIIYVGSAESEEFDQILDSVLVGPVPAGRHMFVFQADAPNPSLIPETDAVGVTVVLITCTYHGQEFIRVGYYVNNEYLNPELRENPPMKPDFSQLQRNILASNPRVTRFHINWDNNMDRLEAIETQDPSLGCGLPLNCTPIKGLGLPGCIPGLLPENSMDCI
# UniProt P31939: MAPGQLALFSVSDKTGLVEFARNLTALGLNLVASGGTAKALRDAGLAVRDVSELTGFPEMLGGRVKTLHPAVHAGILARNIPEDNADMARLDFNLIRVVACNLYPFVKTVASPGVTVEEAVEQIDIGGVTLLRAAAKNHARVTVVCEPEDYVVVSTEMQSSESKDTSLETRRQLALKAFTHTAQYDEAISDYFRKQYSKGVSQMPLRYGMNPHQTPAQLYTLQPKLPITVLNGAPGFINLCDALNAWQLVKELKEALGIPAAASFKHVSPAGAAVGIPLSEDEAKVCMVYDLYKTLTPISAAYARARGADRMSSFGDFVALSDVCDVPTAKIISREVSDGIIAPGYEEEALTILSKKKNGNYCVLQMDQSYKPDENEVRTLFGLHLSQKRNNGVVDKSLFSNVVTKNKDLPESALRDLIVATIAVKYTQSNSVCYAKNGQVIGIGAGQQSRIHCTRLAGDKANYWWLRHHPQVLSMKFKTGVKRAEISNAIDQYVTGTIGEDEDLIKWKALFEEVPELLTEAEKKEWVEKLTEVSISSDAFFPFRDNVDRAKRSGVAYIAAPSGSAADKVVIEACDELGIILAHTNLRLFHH
# UniProt O95352: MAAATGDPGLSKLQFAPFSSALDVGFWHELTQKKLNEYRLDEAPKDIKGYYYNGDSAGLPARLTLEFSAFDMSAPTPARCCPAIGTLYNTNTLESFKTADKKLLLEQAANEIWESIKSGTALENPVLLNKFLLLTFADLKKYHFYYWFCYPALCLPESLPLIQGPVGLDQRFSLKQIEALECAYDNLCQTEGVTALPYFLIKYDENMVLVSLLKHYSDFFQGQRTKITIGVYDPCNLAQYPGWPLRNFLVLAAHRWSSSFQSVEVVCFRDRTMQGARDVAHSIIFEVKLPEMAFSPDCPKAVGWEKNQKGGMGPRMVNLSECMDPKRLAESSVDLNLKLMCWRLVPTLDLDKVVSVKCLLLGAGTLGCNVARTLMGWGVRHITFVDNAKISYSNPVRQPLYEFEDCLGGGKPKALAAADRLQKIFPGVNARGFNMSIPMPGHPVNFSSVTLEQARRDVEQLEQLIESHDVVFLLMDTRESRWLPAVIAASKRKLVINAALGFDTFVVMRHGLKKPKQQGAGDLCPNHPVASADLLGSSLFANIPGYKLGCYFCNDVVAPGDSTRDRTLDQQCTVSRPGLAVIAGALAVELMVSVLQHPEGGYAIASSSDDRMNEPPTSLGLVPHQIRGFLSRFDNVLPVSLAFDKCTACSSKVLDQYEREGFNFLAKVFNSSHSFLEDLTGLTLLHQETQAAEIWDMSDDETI
# UniProt O43681: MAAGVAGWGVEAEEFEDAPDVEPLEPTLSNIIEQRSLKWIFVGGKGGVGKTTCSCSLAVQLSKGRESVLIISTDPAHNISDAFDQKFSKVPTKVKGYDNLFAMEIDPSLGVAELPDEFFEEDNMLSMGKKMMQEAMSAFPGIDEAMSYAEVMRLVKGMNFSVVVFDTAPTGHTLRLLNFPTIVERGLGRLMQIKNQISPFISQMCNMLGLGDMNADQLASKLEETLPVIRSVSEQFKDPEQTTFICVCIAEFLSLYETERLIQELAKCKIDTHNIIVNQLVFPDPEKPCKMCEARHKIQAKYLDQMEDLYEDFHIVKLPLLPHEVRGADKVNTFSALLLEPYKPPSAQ
# UniProt O00244: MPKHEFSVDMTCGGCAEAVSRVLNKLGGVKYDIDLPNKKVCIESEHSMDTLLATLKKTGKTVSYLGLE
# UniProt Q9NY97: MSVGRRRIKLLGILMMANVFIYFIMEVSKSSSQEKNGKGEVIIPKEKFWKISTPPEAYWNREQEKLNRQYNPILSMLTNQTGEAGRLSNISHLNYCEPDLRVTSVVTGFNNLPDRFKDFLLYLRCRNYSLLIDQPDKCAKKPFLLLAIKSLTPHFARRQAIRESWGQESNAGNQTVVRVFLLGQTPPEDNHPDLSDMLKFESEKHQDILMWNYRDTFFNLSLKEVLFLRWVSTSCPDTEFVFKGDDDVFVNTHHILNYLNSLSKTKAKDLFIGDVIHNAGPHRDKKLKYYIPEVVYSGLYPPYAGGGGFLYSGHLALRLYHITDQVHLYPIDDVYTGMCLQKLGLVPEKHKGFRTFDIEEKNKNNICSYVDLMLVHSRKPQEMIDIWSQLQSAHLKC
# UniProt Q2TAZ0: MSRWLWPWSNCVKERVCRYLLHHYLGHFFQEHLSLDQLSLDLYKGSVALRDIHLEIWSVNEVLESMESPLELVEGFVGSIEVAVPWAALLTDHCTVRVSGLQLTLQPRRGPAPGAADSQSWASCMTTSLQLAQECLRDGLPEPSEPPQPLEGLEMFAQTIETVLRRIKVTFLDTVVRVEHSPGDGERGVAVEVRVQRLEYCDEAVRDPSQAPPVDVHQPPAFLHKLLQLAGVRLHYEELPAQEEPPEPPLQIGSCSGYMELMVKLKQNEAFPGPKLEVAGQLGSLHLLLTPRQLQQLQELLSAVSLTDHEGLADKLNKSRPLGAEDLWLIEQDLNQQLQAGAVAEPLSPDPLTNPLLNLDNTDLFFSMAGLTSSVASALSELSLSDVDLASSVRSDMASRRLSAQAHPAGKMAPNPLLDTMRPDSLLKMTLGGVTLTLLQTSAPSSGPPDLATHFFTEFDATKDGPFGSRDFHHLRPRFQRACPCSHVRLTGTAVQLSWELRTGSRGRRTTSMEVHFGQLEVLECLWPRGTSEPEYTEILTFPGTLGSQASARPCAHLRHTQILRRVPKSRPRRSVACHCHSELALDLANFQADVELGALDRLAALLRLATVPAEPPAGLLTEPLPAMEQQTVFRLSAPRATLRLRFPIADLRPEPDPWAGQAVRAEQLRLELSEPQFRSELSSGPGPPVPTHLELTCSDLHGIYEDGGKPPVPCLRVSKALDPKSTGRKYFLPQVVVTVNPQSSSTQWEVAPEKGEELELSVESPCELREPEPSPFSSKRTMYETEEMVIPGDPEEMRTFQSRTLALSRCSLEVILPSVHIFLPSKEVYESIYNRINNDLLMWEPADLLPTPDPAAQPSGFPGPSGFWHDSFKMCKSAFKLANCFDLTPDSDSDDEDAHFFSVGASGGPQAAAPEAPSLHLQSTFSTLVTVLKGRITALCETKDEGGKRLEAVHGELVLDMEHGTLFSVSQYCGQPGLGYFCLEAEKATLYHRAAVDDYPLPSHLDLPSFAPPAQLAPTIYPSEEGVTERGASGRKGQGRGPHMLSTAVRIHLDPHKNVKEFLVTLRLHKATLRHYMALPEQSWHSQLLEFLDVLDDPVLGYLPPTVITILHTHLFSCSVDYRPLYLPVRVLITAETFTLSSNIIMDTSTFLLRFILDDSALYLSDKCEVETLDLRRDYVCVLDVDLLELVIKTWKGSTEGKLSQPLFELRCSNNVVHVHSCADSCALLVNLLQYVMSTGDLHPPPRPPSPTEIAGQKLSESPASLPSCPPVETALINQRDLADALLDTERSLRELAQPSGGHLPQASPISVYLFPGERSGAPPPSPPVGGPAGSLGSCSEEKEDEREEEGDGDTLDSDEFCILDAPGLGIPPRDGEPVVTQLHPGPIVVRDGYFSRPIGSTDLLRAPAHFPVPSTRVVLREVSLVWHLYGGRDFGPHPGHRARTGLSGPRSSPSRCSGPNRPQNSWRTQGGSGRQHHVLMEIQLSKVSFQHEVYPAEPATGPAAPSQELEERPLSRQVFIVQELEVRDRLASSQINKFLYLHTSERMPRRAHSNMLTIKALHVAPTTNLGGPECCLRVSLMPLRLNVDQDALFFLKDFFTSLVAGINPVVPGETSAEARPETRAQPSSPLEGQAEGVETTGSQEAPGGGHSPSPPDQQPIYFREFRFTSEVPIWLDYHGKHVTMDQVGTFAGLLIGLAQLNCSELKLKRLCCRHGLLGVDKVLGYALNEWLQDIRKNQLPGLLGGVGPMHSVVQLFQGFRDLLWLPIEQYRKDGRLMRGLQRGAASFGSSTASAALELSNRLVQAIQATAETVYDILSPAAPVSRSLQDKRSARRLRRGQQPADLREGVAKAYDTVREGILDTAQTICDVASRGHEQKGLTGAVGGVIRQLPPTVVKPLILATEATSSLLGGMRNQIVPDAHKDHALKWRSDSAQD
# UniProt Q8NBU5: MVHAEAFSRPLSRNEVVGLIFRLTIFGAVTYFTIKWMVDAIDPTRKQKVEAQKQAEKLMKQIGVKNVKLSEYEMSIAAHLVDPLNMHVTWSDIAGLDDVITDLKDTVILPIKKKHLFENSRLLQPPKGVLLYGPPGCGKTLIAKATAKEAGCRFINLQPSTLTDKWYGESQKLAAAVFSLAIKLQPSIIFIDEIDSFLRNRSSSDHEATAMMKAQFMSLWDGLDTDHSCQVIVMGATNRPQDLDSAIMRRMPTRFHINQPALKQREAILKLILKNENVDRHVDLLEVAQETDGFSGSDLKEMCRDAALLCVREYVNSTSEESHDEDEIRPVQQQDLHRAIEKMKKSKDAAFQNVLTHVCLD
# UniProt Q96A05, whole entry, looked up: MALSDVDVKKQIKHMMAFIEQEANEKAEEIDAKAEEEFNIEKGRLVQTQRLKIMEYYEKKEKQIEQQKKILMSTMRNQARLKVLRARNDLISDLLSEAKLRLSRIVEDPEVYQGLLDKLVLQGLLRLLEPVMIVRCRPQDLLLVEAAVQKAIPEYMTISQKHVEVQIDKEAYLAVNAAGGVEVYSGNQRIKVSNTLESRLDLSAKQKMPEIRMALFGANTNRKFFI
# UniProt O14965: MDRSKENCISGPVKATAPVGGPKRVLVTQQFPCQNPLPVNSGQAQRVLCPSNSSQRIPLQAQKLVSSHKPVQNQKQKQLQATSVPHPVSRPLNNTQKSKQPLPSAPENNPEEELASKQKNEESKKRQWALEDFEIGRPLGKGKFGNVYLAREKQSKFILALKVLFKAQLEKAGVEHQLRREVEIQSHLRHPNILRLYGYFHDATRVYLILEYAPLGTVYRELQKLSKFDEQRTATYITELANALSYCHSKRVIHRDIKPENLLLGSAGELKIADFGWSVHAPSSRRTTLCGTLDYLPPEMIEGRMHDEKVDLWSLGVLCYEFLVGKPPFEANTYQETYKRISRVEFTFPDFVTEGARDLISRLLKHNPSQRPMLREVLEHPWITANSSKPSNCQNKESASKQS
# UniProt Q9NWX5: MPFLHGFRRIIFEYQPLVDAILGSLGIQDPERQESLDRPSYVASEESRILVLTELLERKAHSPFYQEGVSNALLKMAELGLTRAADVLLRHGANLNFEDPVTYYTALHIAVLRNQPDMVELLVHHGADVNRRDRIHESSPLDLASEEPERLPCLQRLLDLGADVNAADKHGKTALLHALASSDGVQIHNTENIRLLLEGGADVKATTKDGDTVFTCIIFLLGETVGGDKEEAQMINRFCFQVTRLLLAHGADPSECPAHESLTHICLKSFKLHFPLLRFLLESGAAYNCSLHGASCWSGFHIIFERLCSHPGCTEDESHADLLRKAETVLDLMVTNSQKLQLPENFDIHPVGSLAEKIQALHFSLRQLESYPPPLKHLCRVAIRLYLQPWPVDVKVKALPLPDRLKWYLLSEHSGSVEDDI
# The other results are listed elsewhere or left out.
# Experiments:
# Experiment in all cases: log2 fold change, soluble protein after heating vs DMSO (PISA); higher = thermal stabilisation; K562 lysate, 10 uM; active = over 0.2 and 3.5 SD of the protein, either way, in both replicates (recomputed)
# [1] = compound: CCCS(=O)(=O)Nc1ccc(F)c(C(=O)c2c[nH]c3ncc(-c4ccc(Cl)cc4)cc23)c1F [vemurafenib]
# Outline: (§1)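 The values are log-two fold changes in thermal stability compared with solvent controls and come from duplicates. They were obtained by TMTpro 16plex LC-MS/MS, with channel sums equalised, on the supernatant after 21,000xg for 90 min. That supernatant came from crude K562 extract at 1 mg/mL protein treated with 10 μM compound for 30 min, heated for 3 min across 48°C-58°C, pooled and brought to 0.5% NP-40 at 4°C.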
# [2] = compound: CCCS(=O)(=O)Nc1ccc(F)c(C(=O)c2c[nH]c3ncc(Cl)cc23)c1F
# Outline: as §1
# [3] = compound: CCN(CCCOc1ccc2c(Nc3cc(CC(=O)Nc4cccc(F)c4)[nH]n3)ncnc2c1)CCOP(=O)(O)O [barasertib]
# Outline: as §1
# [4] = compound: CC[C@@H]1C(=O)N(C)c2cnc(Nc3ccc(C(=O)NC4CCN(C)CC4)cc3OC)nc2N1C1CCCC1
# Outline: as §1
# [5] = compound: CC[C@@H]1C(=O)N(C)c2cnc(Nc3ccc(C(=O)N[C@H]4CC[C@H](N5CCN(CC6CC6)CC5)CC4)cc3OC)nc2N1C(C)C [volasertib]
# Outline: as §1
# [6] = compound: CCn1c(C(=O)N(C2CC2)C2CC2)cc2c3c(ncn3C)c(Nc3cc(C)n(C)n3)nc21
# Outline: as §1
# [7] = compound: CCn1cc(-c2ccnc3[nH]c(-c4cccc(CN(C)C)c4)cc23)c(-c2ccc(NC(=O)N(C)C)cc2)n1
# Outline: as §1
# [8] = compound: CN1CCC(CNc2ccc3ncc(-c4cccc(OC(F)(F)F)c4)n3n2)CC1
# Outline: as §1
# [9] = compound: CN1CCN(CCOc2cc(OC3CCOCC3)c3c(Nc4c(Cl)ccc5c4OCO5)ncnc3c2)CC1 [saracatinib]
# Outline: as §1
# [10] = compound: CN1CCN(c2nc(C3=C(c4c[nH]c5ccccc45)C(=O)NC3=O)c3ccccc3n2)CC1 [sotrastaurin]
# Outline: as §1
# [11] = compound: CN1CC[C@H](c2c(O)cc(O)c3c(=O)cc(-c4ccccc4Cl)oc23)[C@H](O)C1 [alvocidib]
# Outline: as §1
# [12] = compound: CN1CCc2c(c3ccccc3n2Cc2ccc(C(=O)NO)cc2)C1 [Tubastatin A]
# Outline: as §1
# [13] = compound: CNC(=O)C1=CC=CC=C1NC2=NC(=NC=C2Cl)NC3=C(C=C(C=C3)N4CCOCC4)OC
# Outline: as §1
# [14] = compound: CNC(=O)c1ccc(Nc2ncc(C(F)(F)F)c(NCc3nccnc3N(C)S(C)(=O)=O)n2)cc1 [defactinib]
# Outline: as §1
# [15] = compound: CNc1nc(-c2ccc3c(N)n[nH]c3c2)cc(N2C[C@@H](C(=O)NC3CCCCC3)CC[C@H]2C)n1
# Outline: as §1
# [16] = compound: COC(=O)N[C@@H](C)CNc1nccc(-c2cn(C(C)C)nc2-c2cc(Cl)cc(NS(C)(=O)=O)c2F)n1 [encorafenib]
# Outline: as §1
# [17] = compound: COC(=O)[C@H](CCSC)NC(=O)C1=C(C=C(C=C1)NC[C@H](CS)N)C2=CC=CC=C2
# Outline: as §1
# [18] = compound: COc1cc(Nc2ncc3c(n2)-c2ccc(Cl)cc2C(c2c(F)cccc2OC)=NC3)ccc1C(=O)O [alisertib]
# Outline: as §1
# [19] = compound: COc1cc2nc(-c3cc(F)ccc3O)nc(N[C@@H]3CNC[C@H]3C(C)(C)O)c2cc1OC
# Outline: as §1
# [20] = compound: COc1cc2ncnc(Nc3ccc(F)c(Cl)c3)c2cc1OCCCN1CCOCC1 [gefitinib]
# Outline: as §1
Target,log2 fold change [1],log2 fold change [2],log2 fold change [3],log2 fold change [4],log2 fold change [5],log2 fold change [6],log2 fold change [7],log2 fold change [8],log2 fold change [9],log2 fold change [10],log2 fold change [11],log2 fold change [12],log2 fold change [13],log2 fold change [14],log2 fold change [15],log2 fold change [16],log2 fold change [17],log2 fold change [18],log2 fold change [19],log2 fold change [20]
ATG5 (UniProt Q9H1Y0),inactive: 0.029,inactive: 0.022,inactive: 0.019,inactive: 0.022,inactive: 0.012,inactive: 0.007,inactive: -0.019,inactive: 0.034,inactive: 0.047,inactive: -0.031,inactive: -0.013,inactive: -0.032,inactive: 0,inactive: 0.003,inactive: 0.004,inactive: 0.011,inactive: 0.063,inactive: 0.021,inactive: 0.001,inactive: 0.008
ASNS (UniProt P08243),inactive: -0.002,inactive: -0.002,inactive: 0.025,inactive: -0.056,inactive: -0.047,inactive: 0.005,inactive: 0.031,inactive: -0.03,inactive: 0.022,inactive: 0.014,inactive: 0.019,inactive: -0.025,inactive: -0.036,inactive: 0.006,inactive: 0.027,inactive: -0.009,inactive: -0.12,inactive: 0.019,inactive: 0.009,inactive: 0.004
ASF1B (UniProt Q9NVP2),inactive: 0.076,inactive: 0.042,inactive: -0.041,inactive: 0.017,inactive: -0.046,inactive: -0.04,inactive: -0.009,inactive: -0.064,inactive: 0.01,inactive: 0.025,inactive: -0.016,inactive: -0.002,inactive: 0.023,inactive: -0.031,inactive: 0.027,inactive: 0.031,inactive: 0.072,inactive: -0.1,inactive: 0.009,inactive: 0.152
ATIC (UniProt P31939),inactive: 0.003,inactive: 0.006,inactive: -0.024,inactive: -0.022,inactive: -0.043,inactive: 0.009,inactive: 0.026,inactive: -0.029,inactive: -0.023,inactive: -0.031,inactive: -0.023,inactive: -0.024,inactive: 0.018,inactive: -0.018,inactive: 0.016,inactive: -0.046,inactive: 0.098,inactive: 0.041,inactive: 0,inactive: -0.03
ATG7 (UniProt O95352),inactive: -0.031,inactive: 0.014,inactive: -0.002,inactive: -0.032,inactive: -0.052,inactive: 0.021,inactive: -0.058,inactive: 0.091,inactive: -0.003,inactive: 0.037,inactive: 0.01,inactive: -0.075,inactive: 0.001,inactive: 0.012,inactive: -0.04,inactive: 0.021,inactive: -0.031,inactive: 0.006,inactive: -0.008,inactive: 0.019
ASNA1 (UniProt O43681),inactive: -0.055,inactive: 0.005,inactive: -0.009,inactive: -0.086,inactive: -0.02,inactive: 0.034,inactive: -0.071,inactive: 0.01,inactive: 0.018,inactive: -0.015,inactive: 0.051,inactive: -0.043,inactive: -0.014,inactive: -0.011,inactive: -0.01,inactive: -0.008,inactive: 0.001,inactive: -0.012,inactive: -0.002,inactive: 0.022
ATOX1 (UniProt O00244),inactive: -0.003,inactive: -0.006,inactive: 0.092,inactive: 0.028,inactive: 0.034,inactive: -0.054,inactive: -0.092,inactive: -0.034,inactive: 0.056,inactive: -0.036,inactive: 0.101,inactive: 0.055,inactive: 0.027,inactive: 0.023,inactive: 0.108,inactive: -0.048,inactive: -0.031,inactive: -0.017,inactive: 0.017,inactive: -0.143
B3GNT2 (UniProt Q9NY97),inactive: 0.039,inactive: 0.012,inactive: -0.077,inactive: 0.052,inactive: -0.072,inactive: -0.032,inactive: -0.098,inactive: 0.067,inactive: 0.025,inactive: -0.004,inactive: -0.036,inactive: 0.022,inactive: 0.044,inactive: 0,inactive: 0.014,inactive: 0.085,inactive: -0.023,inactive: 0.056,inactive: -0.095,inactive: 0.024
ATXN2L isoform 3 (UniProt Q8WWM7),inactive: 0.005,inactive: -0.011,inactive: -0.015,inactive: 0.045,inactive: -0.012,inactive: 0.003,inactive: -0.047,inactive: 0.024,inactive: -0.004,inactive: 0.028,inactive: -0.006,inactive: 0.008,inactive: -0.016,inactive: -0.014,inactive: -0.012,inactive: -0.001,inactive: -0.056,inactive: -0.013,inactive: 0.01,inactive: 0.002
ATG2A isoform 3 (UniProt Q2TAZ0),inactive: -0.033,inactive: 0.019,inactive: 0.045,inactive: -0.018,inactive: -0.006,inactive: 0.009,inactive: 0.056,inactive: -0.19,inactive: 0.024,inactive: 0.067,inactive: 0.025,inactive: -0.071,inactive: 0.046,inactive: 0.029,inactive: -0.006,inactive: 0.103,inactive: -0.054,inactive: 0.079,inactive: 0.055,inactive: -0.061
ATAD1 (UniProt Q8NBU5),inactive: 0.052,inactive: -0.072,inactive: -0.008,inactive: 0.024,inactive: -0.018,inactive: -0.041,inactive: -0.04,inactive: -0.03,inactive: -0.031,inactive: 0.06,inactive: -0.047,inactive: -0.016,inactive: 0.045,inactive: -0.054,inactive: 0.006,inactive: -0.049,inactive: -0.042,inactive: -0.119,inactive: 0.039,inactive: 0.22
ATP1A3 isoform 3 (UniProt P13637),inactive: 0.034,inactive: 0.006,inactive: -0.003,inactive: 0.039,inactive: 0.01,inactive: -0.034,inactive: -0.042,inactive: 0.013,inactive: -0.008,inactive: 0.008,inactive: -0.059,inactive: 0.041,inactive: -0.031,inactive: -0.011,inactive: 0.089,inactive: -0.005,inactive: -0.018,inactive: -0.005,inactive: 0.031,inactive: 0.048
ATP6V1E2 (UniProt Q96A05),inactive: 0.033,inactive: 0,inactive: -0.008,inactive: 0.095,inactive: 0.015,inactive: 0.023,inactive: -0.113,inactive: 0.081,inactive: 0.017,inactive: -0.021,inactive: -0.01,inactive: 0.052,inactive: -0.014,inactive: 0.024,inactive: 0.143,inactive: 0.027,inactive: 0.022,inactive: 0.021,inactive: 0.01,inactive: -0.059
ATXN2 (UniProt Q99700),inactive: 0.007,inactive: -0.004,inactive: 0.012,inactive: 0.057,inactive: 0.001,inactive: 0.022,inactive: 0.005,inactive: -0.03,inactive: -0.014,inactive: 0.052,inactive: 0.046,inactive: -0.047,inactive: 0.016,inactive: -0.019,inactive: 0.001,inactive: 0.018,inactive: -0.003,inactive: -0.032,inactive: 0.011,inactive: 0.006
AURKA (UniProt O14965),inactive: 0.088,inactive: 0.068,active: 0.763,inactive: -0.062,inactive: -0.015,inactive: -0.009,active: 0.719,inactive: 0.096,inactive: 0.008,inactive: 0.028,inactive: -0.006,inactive: 0.03,inactive: 0.586,inactive: 0.425,inactive: 0.094,inactive: -0.068,inactive: 0.002,inactive: 0.436,inactive: -0.023,inactive: -0.101
ASB6 (UniProt Q9NWX5),inactive: -0.249,inactive: -0.039,inactive: 0.109,active: 0.651,inactive: -0.026,inactive: -0.002,inactive: 0.182,inactive: 0.075,inactive: -0.05,inactive: -0.01,inactive: 0.097,inactive: 0.014,inactive: -0.006,inactive: 0.019,inactive: 0.099,inactive: -0.1,inactive: 0.174,inactive: -0.001,inactive: 0.073,inactive: -0.046

# A run of entries from further up:
Target,log2 fold change [1],log2 fold change [2],log2 fold change [3],log2 fold change [4],log2 fold change [5],log2 fold change [6],log2 fold change [7],log2 fold change [8],log2 fold change [9],log2 fold change [10],log2 fold change [11],log2 fold change [12],log2 fold change [13],log2 fold change [14],log2 fold change [15],log2 fold change [16],log2 fold change [17],log2 fold change [18],log2 fold change [19],log2 fold change [20]
ATG5 (UniProt Q9H1Y0),inactive: 0.029,inactive: 0.022,inactive: 0.019,inactive: 0.022,inactive: 0.012,inactive: 0.007,inactive: -0.019,inactive: 0.034,inactive: 0.047,inactive: -0.031,inactive: -0.013,inactive: -0.032,inactive: 0,inactive: 0.003,inactive: 0.004,inactive: 0.011,inactive: 0.063,inactive: 0.021,inactive: 0.001,inactive: 0.008
ASNS (UniProt P08243),inactive: -0.002,inactive: -0.002,inactive: 0.025,inactive: -0.056,inactive: -0.047,inactive: 0.005,inactive: 0.031,inactive: -0.03,inactive: 0.022,inactive: 0.014,inactive: 0.019,inactive: -0.025,inactive: -0.036,inactive: 0.006,inactive: 0.027,inactive: -0.009,inactive: -0.12,inactive: 0.019,inactive: 0.009,inactive: 0.004
ASF1B (UniProt Q9NVP2),inactive: 0.076,inactive: 0.042,inactive: -0.041,inactive: 0.017,inactive: -0.046,inactive: -0.04,inactive: -0.009,inactive: -0.064,inactive: 0.01,inactive: 0.025,inactive: -0.016,inactive: -0.002,inactive: 0.023,inactive: -0.031,inactive: 0.027,inactive: 0.031,inactive: 0.072,inactive: -0.1,inactive: 0.009,inactive: 0.152
ATIC (UniProt P31939),inactive: 0.003,inactive: 0.006,inactive: -0.024,inactive: -0.022,inactive: -0.043,inactive: 0.009,inactive: 0.026,inactive: -0.029,inactive: -0.023,inactive: -0.031,inactive: -0.023,inactive: -0.024,inactive: 0.018,inactive: -0.018,inactive: 0.016,inactive: -0.046,inactive: 0.098,inactive: 0.041,inactive: 0,inactive: -0.03
ATG7 (UniProt O95352),inactive: -0.031,inactive: 0.014,inactive: -0.002,inactive: -0.032,inactive: -0.052,inactive: 0.021,inactive: -0.058,inactive: 0.091,inactive: -0.003,inactive: 0.037,inactive: 0.01,inactive: -0.075,inactive: 0.001,inactive: 0.012,inactive: -0.04,inactive: 0.021,inactive: -0.031,inactive: 0.006,inactive: -0.008,inactive: 0.019
